Results from the supplement of paper PMC8728848.
This is one part of the list.

Tests used:
Assay in all cases: glycan array binding signal (z-score within array); higher = stronger binding
Settings in all cases: glycan notation: IUPAC condensed, linker removed
Fuc(a1-2)Gal = biological target: Fuc(a1-2)Gal
Outline: (§1)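 Arrays were curated from the Consortium for Functional Glycomics database, 3228 in total, and kept only where the protein sequence was available. Binding is expressed as a within-array Z-score. This score was averaged across arrays of the same protein sequence at different concentrations or buffers and across linkers, and negative values can be read as non-binding.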

Fuc(a1-2)Gal(b1-3)GalNAc = biological target: Fuc(a1-2)Gal(b1-3)GalNAc
Outline: as §1

[1] = biological target: Fuc(a1-2)Gal(b1-3)GalNAc(b1-3)Gal
Outline: as §1

[2] = biological target: Fuc(a1-2)Gal(b1-3)GalNAc(b1-3)Gal(a1-4)Gal(b1-4)Glc
Outline: as §1

[3] = biological target: Fuc(a1-2)Gal(b1-3)GalNAc(b1-3)Gal(b1-4)Glc
Outline: as §1

[4] = biological target: Fuc(a1-2)Gal(b1-3)GalNAc(b1-4)[Neu5Ac(a2-3)]Gal(b1-4)Glc
Outline: as §1

[5] = biological target: Fuc(a1-2)Gal(b1-3)[Fuc(a1-4)]GlcNAc
Outline: as §1

Fuc(a1-2)Gal(b1-4)Glc = biological target: Fuc(a1-2)Gal(b1-4)Glc
Outline: as §1

Fuc(a1-2)Gal(b1-4)Glc6S = biological target: Fuc(a1-2)Gal(b1-4)Glc6S
Outline: as §1

Fuc(a1-2)Gal(b1-4)GlcNAc = biological target: Fuc(a1-2)Gal(b1-4)GlcNAc
Outline: as §1

[6] = biological target: Fuc(a1-2)Gal(b1-4)GlcNAc(b1-3)Gal(b1-4)GlcNAc
Outline: as §1

[7] = biological target: Fuc(a1-2)Gal(b1-4)GlcNAc(b1-3)Gal(b1-4)GlcNAc(b1-3)Gal(b1-4)GlcNAc
Outline: as §1

[8] = biological target: Fuc(a1-2)Gal(b1-4)GlcNAc6S
Outline: as §1

[9] = biological target: Fuc(a1-2)Gal(b1-4)[Fuc(a1-3)]GalNAc(b1-3)Gal(b1-4)[Fuc(a1-3)]GlcNAc
Outline: as §1

[10] = biological target: Fuc(a1-2)Gal(b1-4)[Fuc(a1-3)]GalNAc(b1-3)Gal(b1-4)[Fuc(a1-3)]GlcNAc(b1-3)Gal(b1-4)[Fuc(a1-3)]GalNAc
Outline: as §1

[11] = biological target: Fuc(a1-2)Gal(b1-4)[Fuc(a1-3)]GlcNAc
Outline: as §1

Fuc(a1-2)Gal6S(b1-4)Glc = biological target: Fuc(a1-2)Gal6S(b1-4)Glc
Outline: as §1

[12] = biological target: Fuc(a1-2)Gal6S(b1-4)Glc6S
Outline: as §1

[13] = biological target: Fuc(a1-2)Gal6S(b1-4)GlcNAc
Outline: as §1

Fuc(a1-2)GlcNAc = biological target: Fuc(a1-2)GlcNAc
Outline: as §1

Fuc(a1-2)[Gal(a1-3)]Gal = biological target: Fuc(a1-2)[Gal(a1-3)]Gal
Outline: as §1

[14] = biological target: Fuc(a1-2)[Gal(a1-3)]Gal(b1-3)GlcNAc
Outline: as §1

[15] = biological target: Fuc(a1-2)[Gal(a1-3)]Gal(b1-4)Glc
Outline: as §1

[16] = biological target: Fuc(a1-2)[Gal(a1-3)]Gal(b1-4)GlcNAc
Outline: as §1

[17] = biological target: Fuc(a1-2)[Gal(a1-3)]Gal(b1-4)[Fuc(a1-3)]GlcNAc
Outline: as §1

[18] = biological target: Fuc(a1-2)[Gal(a1-4)]Gal(b1-4)GalNAc
Outline: as §1

[19] = biological target: Fuc(a1-2)[GalNAc(a1-3)]Gal
Outline: as §1

[20] = biological target: Fuc(a1-2)[GalNAc(a1-3)]Gal(b1-3)GlcNAc
Outline: as §1

[21] = biological target: Fuc(a1-2)[GalNAc(a1-3)]Gal(b1-4)Glc
Outline: as §1

[22] = biological target: Fuc(a1-2)[GalNAc(a1-3)]Gal(b1-4)GlcNAc
Outline: as §1

[23] = biological target: Fuc(a1-2)[GalNAc(a1-3)]Gal(b1-4)[Fuc(a1-3)]GlcNAc
Outline: as §1

[24] = biological target: Fuc(a1-2)[GalNAc(a1-4)]Gal(b1-4)GlcNAc
Outline: as §1

Fuc(a1-3)GlcNAc = biological target: Fuc(a1-3)GlcNAc
Outline: as §1

[25] = biological target: Fuc(a1-3)[Gal(b1-4)]Glc6S
Outline: as §1

[26] = biological target: Fuc(a1-3)[Gal(b1-4)]GlcNAc
Outline: as §1

[27] = biological target: Fuc(a1-3)[Gal(b1-4)]GlcNAc(b1-3)Gal(b1-3)[Fuc(a1-4)]GlcNAc
Outline: as §1

[28] = biological target: Fuc(a1-3)[Gal(b1-4)]GlcNAc(b1-4)Gal(b1-4)[Fuc(a1-3)]GlcNAc
Outline: as §1

[29] = biological target: Fuc(a1-3)[Gal(b1-4)]GlcNAc(b1-4)Gal(b1-4)[Fuc(a1-3)]GlcNAc(b1-4)Gal(b1-4)[Fuc(a1-3)]GlcNAc
Outline: as §1

[30] = biological target: Fuc(a1-3)[Gal(b1-4)]GlcNAc6S
Outline: as §1

[31] = biological target: Fuc(a1-3)[Gal3S(b1-4)]Glc
Outline: as §1

[32] = biological target: Fuc(a1-3)[Gal3S(b1-4)]Glc6S
Outline: as §1

[33] = biological target: Fuc(a1-3)[Gal3S(b1-4)]GlcNAc
Outline: as §1

[34] = biological target: Fuc(a1-3)[Gal3S(b1-4)]GlcNAc6S
Outline: as §1

[35] = biological target: Fuc(a1-3)[GalNAc(b1-4)]Gal(b1-4)GlcNAc
Outline: as §1

Fuc(a1-4)GlcNAc = biological target: Fuc(a1-4)GlcNAc
Outline: as §1

Fuc(b1-3)GlcNAc = biological target: Fuc(b1-3)GlcNAc
Outline: as §1

Gal(a1-2)Gal = biological target: Gal(a1-2)Gal
Outline: as §1

Gal(a1-3)Gal = biological target: Gal(a1-3)Gal
Outline: as §1

Gal(a1-3)Gal(b1-3)Glc = biological target: Gal(a1-3)Gal(b1-3)Glc
Outline: as §1

Gal(a1-3)Gal(b1-3)GlcNAc = biological target: Gal(a1-3)Gal(b1-3)GlcNAc
Outline: as §1

Gal(a1-3)Gal(b1-4)GlcNAc = biological target: Gal(a1-3)Gal(b1-4)GlcNAc
Outline: as §1

[36] = biological target: Gal(a1-3)Gal(b1-4)[Fuc(a1-3)]GalNAc
Outline: as §1

Gal(a1-3)GlcNAc = biological target: Gal(a1-3)GlcNAc
Outline: as §1

[37] = biological target: Gal(a1-3)[Gal(a1-4)]Gal(b1-4)GlcNAc
Outline: as §1

Gal(a1-4)Gal(b1-4)Gal = biological target: Gal(a1-4)Gal(b1-4)Gal
Outline: as §1

Gal(a1-4)Gal(b1-4)GalNAc = biological target: Gal(a1-4)Gal(b1-4)GalNAc
Outline: as §1

Gal(a1-4)GlcNAc = biological target: Gal(a1-4)GlcNAc
Outline: as §1

Gal(a1-6)Glc = biological target: Gal(a1-6)Glc
Outline: as §1

Gal(b1-2)Gal = biological target: Gal(b1-2)Gal
Outline: as §1

Gal(b1-3)Gal = biological target: Gal(b1-3)Gal
Outline: as §1

B1: C-Reactive Protein (Homo sapiens), P02741 (protein)
chain: MEKLLCFLVLTSLSHAFGQTDMSRKAFVFPKESDTSYVSLKAPLTKPLKAFTVCLHFYTELSSTRGYSIFSYATKRQDNEILIFWSKDIGYSFTVGGSEILFEVPEVTVAPVHICTSWESASGIVEFWVDGKPRVRKSLKKGYTVGAEASIILGQEQDSFGGNFEGSQSLVGDIGNVNMWDFVLSPDEINTIYLGGPFSPNVLNWRALKYEVQGEVFTKPQLWP
For B1, the “glycan array binding signal (z-score)” value (Fuc(a1-2)Gal) was 0.139, the “glycan array binding signal (z-score)” value (Fuc(a1-2)Gal(b1-3)GalNAc) was -0.571 and the “glycan array binding signal (z-score)” value [1] was -0.638. For the same binder, the “glycan array binding signal (z-score)” value [2] was -0.492, the “glycan array binding signal (z-score)” value [3] was -0.059 and the “glycan array binding signal (z-score)” value [4] was -0.235. The “glycan array binding signal (z-score)” value [5] was -0.56, the “glycan array binding signal (z-score)” value (Fuc(a1-2)Gal(b1-4)Glc) was -0.518 and the “glycan array binding signal (z-score)” value (Fuc(a1-2)Gal(b1-4)Glc6S) was 0.027. The “glycan array binding signal (z-score)” value (Fuc(a1-2)Gal(b1-4)GlcNAc) was -0.488, the “glycan array binding signal (z-score)” value [6] was -0.743 and the “glycan array binding signal (z-score)” value [7] was -0.049. For the same binder, the “glycan array binding signal (z-score)” value [8] was 1.17, the “glycan array binding signal (z-score)” value [9] was -0.458 and the “glycan array binding signal (z-score)” value [10] was -0.266. For the same binder, the “glycan array binding signal (z-score)” value [11] was -0.159, the “glycan array binding signal (z-score)” value (Fuc(a1-2)Gal6S(b1-4)Glc) was 1.25 and the “glycan array binding signal (z-score)” value [12] was 0.157. The “glycan array binding signal (z-score)” value [13] was -0.564, the “glycan array binding signal (z-score)” value (Fuc(a1-2)GlcNAc) was 0.53 and the “glycan array binding signal (z-score)” value (Fuc(a1-2)[Gal(a1-3)]Gal) was -0.584. The “glycan array binding signal (z-score)” value [14] was -0.507, the “glycan array binding signal (z-score)” value [15] was -0.462 and the “glycan array binding signal (z-score)” value [16] was -0.639. The “glycan array binding signal (z-score)” value [17] was -0.585, the “glycan array binding signal (z-score)” value [18] was -0.505 and the “glycan array binding signal (z-score)” value [19] was -0.649. The “glycan array binding signal (z-score)” value [20] was -0.35, the “glycan array binding signal (z-score)” value [21] was -0.542 and the “glycan array binding signal (z-score)” value [22] was -0.489. For the same binder, the “glycan array binding signal (z-score)” value [23] was -0.576, the “glycan array binding signal (z-score)” value [24] was -0.792 and the “glycan array binding signal (z-score)” value (Fuc(a1-3)GlcNAc) was -0.496. The “glycan array binding signal (z-score)” value [25] was 1.22, the “glycan array binding signal (z-score)” value [26] was -0.622 and the “glycan array binding signal (z-score)” value [27] was -0.037. For the same binder, the “glycan array binding signal (z-score)” value [28] was 0.041, the “glycan array binding signal (z-score)” value [29] was -0.517 and the “glycan array binding signal (z-score)” value [30] was 1.01. For the same binder, the “glycan array binding signal (z-score)” value [31] was 0.735, the “glycan array binding signal (z-score)” value [32] was 0.393 and the “glycan array binding signal (z-score)” value [33] was 0.356. The “glycan array binding signal (z-score)” value [34] was 0.1, the “glycan array binding signal (z-score)” value [35] was -0.478 and the “glycan array binding signal (z-score)” value (Fuc(a1-4)GlcNAc) was -0.262. The “glycan array binding signal (z-score)” value (Fuc(b1-3)GlcNAc) was -0.437, the “glycan array binding signal (z-score)” value (Gal(a1-2)Gal) was -0.469 and the “glycan array binding signal (z-score)” value (Gal(a1-3)Gal) was -0.595. For the same binder, the “glycan array binding signal (z-score)” value (Gal(a1-3)Gal(b1-3)Glc) was 0.459, the “glycan array binding signal (z-score)” value (Gal(a1-3)Gal(b1-3)GlcNAc) was -0.59 and the “glycan array binding signal (z-score)” value (Gal(a1-3)Gal(b1-4)GlcNAc) was -0.692. The “glycan array binding signal (z-score)” value [36] was -0.642, the “glycan array binding signal (z-score)” value (Gal(a1-3)GlcNAc) was -0.563 and the “glycan array binding signal (z-score)” value [37] was -0.49. For the same binder, the “glycan array binding signal (z-score)” value (Gal(a1-4)Gal(b1-4)Gal) was -0.603, the “glycan array binding signal (z-score)” value (Gal(a1-4)Gal(b1-4)GalNAc) was -0.598 and the “glycan array binding signal (z-score)” value (Gal(a1-4)GlcNAc) was -0.071. For the same binder, the “glycan array binding signal (z-score)” value (Gal(a1-6)Glc) was -0.456, the “glycan array binding signal (z-score)” value (Gal(b1-2)Gal) was -0.182 and the “glycan array binding signal (z-score)” value (Gal(b1-3)Gal) was -0.554.
